These are yes or no findings as the source states them, for the method shown. In cells and extracts the contact can be indirect. Some entries that bind do so weakly or less than the wild type.
Target: NF-κB p65 (rat (endogenous in VSMCs)) (UniProt Q7TQN4)
Test: co-IP; nuclear fraction of VSMCs treated with TNF-α for 1 h after infection with Ad-Vector or Ad-circ-Sirt1, with and without EX527; lysates precleared with Protein A/G PLUS-Agarose, immunoprecipitated with indicated antibodies at 4°C overnight, Western blot

By UniProt entry, the sequences of proteins in these tests, tags left out.
UniProt Q7TQN4: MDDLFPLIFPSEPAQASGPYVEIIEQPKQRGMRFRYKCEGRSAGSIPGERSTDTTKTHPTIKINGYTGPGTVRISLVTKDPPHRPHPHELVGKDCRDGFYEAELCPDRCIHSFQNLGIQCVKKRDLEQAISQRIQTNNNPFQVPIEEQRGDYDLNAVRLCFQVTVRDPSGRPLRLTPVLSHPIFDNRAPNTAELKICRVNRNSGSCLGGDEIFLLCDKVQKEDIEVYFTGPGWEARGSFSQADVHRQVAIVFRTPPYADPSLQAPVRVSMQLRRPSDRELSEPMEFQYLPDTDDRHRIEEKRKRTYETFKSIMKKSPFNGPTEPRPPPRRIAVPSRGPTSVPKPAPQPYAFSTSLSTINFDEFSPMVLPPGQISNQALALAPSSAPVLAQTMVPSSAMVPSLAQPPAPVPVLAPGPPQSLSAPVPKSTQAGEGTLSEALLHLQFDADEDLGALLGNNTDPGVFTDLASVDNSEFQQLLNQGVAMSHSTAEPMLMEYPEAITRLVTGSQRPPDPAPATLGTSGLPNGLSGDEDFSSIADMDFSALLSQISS

B1: SIRT1 (protein, UniProt A0A0G2JZ79 1-741)
chain: MADEAALALQAGGSPSAAAAMEAASQPADEPLRKRPRRDGPGLGRSPGEPSAAAAAAAAAAGCEAASAAAPAALWREAAGAAAASAEREAPATAAAGDGDNGPGLRREPRAADDFDDDEGEEEDEAAAAAAAAIGYRDNLLLADEIITNGFHSCESDDDDRASHASSSDWTPRPRIGPYTFVQQHLMIGTDPRTILKDLLPETIPPPELDDMTLWQIVINILSEPPKRKKRKDINTIEDAVKLLQECKKIIVLTGAGVSVSCGIPDFRSRDGIYARLAVDFPDLPDPQAMFDIEYFRKDPRPFFKFAKEIYPGQFQPSLCHKFIALSDKEGKLLRNYTQNIDTLEQVAGIQRIIQCHGSFATASCLICKYKVDCEAVRGDIFNQVVPRCPRCPADEPLAIMKPEIVFFGENLPEQFHRAMKYDKDEVDLLIVIGSSLKVRPVALIPSSIPHEVPQILINREPLPHLHFDVELLGDCDVIINELCHRLGGEYAKLCCNPVKLSEITEKPPRTQKELVHLSELPPTPLHISEDSSSPERTVPQDSSVIATLVDQTIKNKVDDLEVSEPKSCVEEKSQEVQTYRNVESINVENPDFKAVGSSTGDKNERTSVAETVRKCWPNRLAKEQISKRLDGNQYLFVPPNRYIFHGAEVYSDSEDDALSSSSCGSNSDSGTCQSPSLEEPLEDESEIEEFYNGLEDDADRPECAGGSGADGGDQEAVNEAIAMKQELTDVNCTPDKSEHY
binding: binds
